PubChem BioAssay AID1224828, NIAID | 2016

Test: 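Find genes required for NF-kappaB p65 moving into the nucleus after LPS in mouse macrophages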 (primary screen)
Cells: mouse RAW264.7 G9 macrophage reporter cells (GFP-p65, Tnf promoter-mCherry)
Knock-down reagent: siRNA pool against mouse genes, 100 nM
Timing: 2 days siRNA transfection, then 40 min LPS before fixation
Challenge: LPS (Salmonella minnesota R595) at 10 ng/ml
Detection: 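Microscopy ratio of nuclear to perinuclear-ring GFP-p65 signal, scaled to the plate median; gene score is the average of two replicate robust z-scores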
Scale: p65 translocation robust z-score: higher = more nuclear NF-kappaB p65 after LPS than the plate median; nuclear/cytoplasmic p65 ratio: higher = more nuclear NF-kappaB p65
Rule for the call: 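Called active when z exceeds 3.3 or falls under -1.56 (median of Tlr4 controls), giving activity score of at least 50; no calls for control wells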
Meaning of the calls: active = hit (p65 shift raised or lowered); inactive = no clear change
Here is one part, drawn at random, of about 17,000 reagents tested. 762 of all reagents (4.5%) were called active. 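Active calls include both raised and lowered p65 entry, mostly lowered; wells with fewer than 50 cells lack a z-score.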 Raw values are not corrected between plates. The numbers tell different reagents against one gene apart. No sequences are given here.

gene symbol	reagent	p65 translocation robust z-score	nuclear/cytoplasmic p65 ratio, rep 1	nuclear/cytoplasmic p65 ratio, rep 2	low cell count flag	activity call
A130050O07Rik (GeneID 320138)	1	-1.21	1.24	1.36	enough cells to score	inactive
Pcmtd2 (GeneID 245867)	1	0.26	1.45	1.44	enough cells to score	inactive
Sall2 (GeneID 50524)	1	-2.6	1.07	1.02	enough cells to score	active
Or10ak7 (GeneID 258394)	1	0.78	1.73	1.53	enough cells to score	inactive
Or10ak7 (GeneID 258394)	2	0.36	1.6	1.53	enough cells to score	inactive
Usp48 (GeneID 170707)	1		1.33	1.04	fewer than 50 cells per well; well left out of scoring	inactive
Pop7 (GeneID 74097)	1	-0.63	1.47	1.27	enough cells to score	inactive
Gphn (GeneID 268566)	1	1.89	1.64	1.66	enough cells to score	inactive
Syn1 (GeneID 20964)	1	2.1	1.72	2	enough cells to score	inactive
Cfap36 (GeneID 216618)	1	-0.87	1.16	0.865	enough cells to score	inactive
Pgm5 (GeneID 226041)	1	-1.04	1.3	1.12	enough cells to score	inactive
Shisa4 (GeneID 77552)	1	0.37	1.4	1.68	enough cells to score	inactive
Nvl (GeneID 67459)	1	0.42	1.8	1.57	enough cells to score	inactive
Cox10 (GeneID 70383)	1	1.21	1.66	1.52	enough cells to score	inactive
Mbnl3 (GeneID 171170)	1	-0.95	1.58	1.22	enough cells to score	inactive
Nme5 (GeneID 75533)	1	-0.35	1.67	1.33	enough cells to score	inactive
Hipk2 (GeneID 15258)	1		1.8	1.23	fewer than 50 cells per well; well left out of scoring	inactive
Ebna1bp2 (GeneID 69072)	1	0.2	1.31	1.39	enough cells to score	inactive
Ndn (GeneID 17984)	1	0.33	1.49	1.38	enough cells to score	inactive
Mmp24 (GeneID 17391)	1	0.48	1.52	1.39	enough cells to score	inactive
Or4c118 (GeneID 258894)	1	0.79	1.85	1.63	enough cells to score	inactive
Fbxo8 (GeneID 50753)	1	1	1.6	1.5	enough cells to score	inactive
Aadac (GeneID 67758)	1	1.64	1.66	1.68	enough cells to score	inactive
AI987944 (GeneID 233168)	1	-1.46	1.37	1.57	enough cells to score	inactive
Mtif3 (GeneID 76366)	1	-1.05	1.29	1.32	enough cells to score	inactive
Bkgd (GeneID 70984)	1	0.49	1.32	1.27	enough cells to score	inactive
Actb (GeneID 11461)	1	0.12	1.67	1.61	enough cells to score	inactive
Klhl31 (GeneID 244923)	1	0.43	1.61	1.63	enough cells to score	inactive
Klhl31 (GeneID 244923)	2	-0.68	1.37	1.41	enough cells to score	inactive
Eif2b4 (GeneID 13667)	1	0.1	1.54	1.32	enough cells to score	inactive
Or1o3 (GeneID 258503)	1	0.24	1.44	1.3	enough cells to score	inactive
Fv4 (GeneID 14352)	1	1.13	1.79	1.59	enough cells to score	inactive
Prl3d3 (GeneID 215029)	1	-0.56	1.3	1.19	enough cells to score	inactive
Or6c76b (GeneID 258252)	1		1.51	1.4	fewer than 50 cells per well; well left out of scoring	inactive
Mrps21 (GeneID 66292)	1	-1.27	1.64	1.35	enough cells to score	inactive
Mical3 (GeneID 194401)	1	-0.89	1.58	1.41	enough cells to score	inactive
Lpin2 (GeneID 64898)	1		1.74	1.45	fewer than 50 cells per well; well left out of scoring	inactive
Tuba4a (GeneID 22145)	1	0.47	1.66	1.49	enough cells to score	inactive
Zfp998 (GeneID 76803)	1		1.11	0.914	fewer than 50 cells per well; well left out of scoring	inactive
P4hb (GeneID 18453)	1	0.13	1.48	1.42	enough cells to score	inactive

Targets above whose gene name starts with S or s (3):
gene symbol	reagent	p65 translocation robust z-score	nuclear/cytoplasmic p65 ratio, rep 1	nuclear/cytoplasmic p65 ratio, rep 2	low cell count flag	activity call
Sall2 (GeneID 50524)	1	-2.6	1.07	1.02	enough cells to score	active
Syn1 (GeneID 20964)	1	2.1	1.72	2	enough cells to score	inactive
Shisa4 (GeneID 77552)	1	0.37	1.4	1.68	enough cells to score	inactive
